# Laboratory results: PubChem BioAssay AID504467 (National Center for Advancing Translational Sciences (NCATS), 2011)
# Screen size: about 330,000 compounds; about 7,700 (2.3%) were called active. Inconclusive results, whose numbers are uncertain, are shown with a selection of clear calls. The call rests on the fitted dose curve; in most records, active means well fitted inhibition curve with a large enough effect; inconclusive means small, poorly fitted or top-dose-only effect, or effect the other way; inactive means flat fitted curve, though single readings scatter. Potencies beside an inconclusive call are fits to weak or partial responses and may not hold up.
# Experiment: qHTS screen for small molecules that inhibit ELG1-dependent DNA repair in human embryonic kidney (HEK293T) cells expressing luciferase-tagged ELG1; further: nearly all actives have a fitted effect of over 55% in size
# Conditions: HEK293T ELG1-luciferase reporter, luminescence, 16 h, DNA damage induced by 5-fluorouridine; activity change, negative = inhibition: at 46.1 µM (top of the series)
# Method in brief: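 In this reporter screen, reduction of luminescence relative to DMSO vehicle indicated activity. Compounds and 5-fluorouridine were added together to 2,000 cells per well, incubated for 16 hr at 37 °C, then developed with ONE-Glo.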
# On the % scale 0 is the no-effect control and ±100 the full control effect; potency means the concentration at half of the fitted maximal effect.
SMILES,Potency,"activity change, negative = inhibition"
Cc1nc2ccc(NC(=O)NCCCO)cc2s1,"inconclusive: 9.2 µM [activator, single point]",–
COc1ccc(CNS(=O)(=O)c2ccc3c(c2)N(C(C)=O)CC(C)S3)cc1 (stereo unspecified),"inconclusive: 2.59 µM [inhibitor, full curve]",–
COc1ccccc1NC(=O)CCN1C(=O)/C(=C\c2cc(OC)c(OC)c(OC)c2)SC1=S,"inconclusive: 3.26 µM [inhibitor, partial curve, poor fit]",–
CCOc1ccc(NC(=O)NCCCn2c(C)nc3cc(C)c(C)cc32)cc1,"inconclusive: 23.1 µM [inhibitor, single point]",–
O=C(NCc1ccco1)C(c1ccco1)N(CCc1ccccc1)C(=O)Cn1nnc2ccccc21 (stereo unspecified),"inconclusive: 29.1 µM [inhibitor, single point]",–
CCCc1cc(-c2[nH]ncc2-c2ccc3c(c2)OCCCO3)c(O)cc1O,active: 20.6 µM,–
COc1ccccc1/C=C/C(=O)OCc1nc2ccccc2c(=O)[nH]1,"inconclusive: 20.6 µM [inhibitor, partial curve, poor fit]",–
O=C(CN1CCN(C(=O)c2ccc(-c3nc4ccccc4s3)o2)CC1)Nc1ccccc1Cl,"inconclusive: 2.31 µM [inhibitor, full curve]",–
CC(C)=CCCC1(C)C=Cc2c(ccc3c2[nH]c2cc(O)c(C)cc23)O1 (stereo unspecified),"inconclusive: 20.6 µM [activator, single point]",–
O=C(CN1C(=O)/C(=C/c2ccc(Cl)cc2)SC1=S)NC1C=CS(=O)(=O)C1 (stereo unspecified),"inconclusive: 23.1 µM [activator, partial curve]",–
Cc1ccccc1N(CC(=O)NC1CCCCC1)C(=O)c1csnn1,–,inactive: 7.12%
COC(=O)c1cccc2c1-c1ccccc1/C2=N\NC(N)=O,"inconclusive: 23.1 µM [inhibitor, single point]",–
Cc1cc(F)cc(C)c1Cn1cnc2c(cnn2C(C)(C)C)c1=O,"inconclusive: 18.3 µM [activator, partial curve, poor fit]",–
CCOC(=O)C1CCN(C(=O)C2(NC(=O)Nc3ccccc3C)CCCCC2)CC1,–,inactive: 0.182%
COc1ccc(OCc2cc(C(=O)NC3CCOC(C)(C)C3)no2)c2ccccc12 (stereo unspecified),"inconclusive: 16.4 µM [activator, partial curve]",–
CC(=O)c1c(C)[nH]c(C(=O)Nc2nc(-c3ccc(-c4ccccc4)cc3)cs2)c1C,active: 20.6 µM,–
CCCCC[C@H]1CN(Cc2ccc(OC)cc2)C(=O)[C@@H]1CC(=O)NCc1ccccc1,–,inactive: -9.81%
CCn1c(=O)c2cc(C(=O)N3CCOCC3)sc2c2ccccc21,–,inactive: -16.4%
Cc1cc(C)cc(N(CC(=O)NCCSc2ccccn2)S(=O)(=O)c2ccccc2)c1,"inconclusive: 18.4 µM [inhibitor, single point]",–
O=C(NC1CCCCC1)C(c1ccccc1)N(C(=O)c1csnn1)C1CC1 (stereo unspecified),–,inactive: 4.53%
CC1(C(=O)OCC(=O)Nc2ccc(Cl)cn2)CC1(Cl)Cl (stereo unspecified),"inconclusive: 18.3 µM [activator, partial curve]",–
CCNC(=S)Nc1cc(OCC)c(NC(=O)c2ccco2)cc1OCC,"inconclusive: 20.6 µM [inhibitor, partial curve, poor fit]",–

SMILES,Potency,"activity change, negative = inhibition"
Cc1cc(=O)oc2c(C)c(OCC(=O)N3CCN(c4ccccc4)CC3)ccc12,"inconclusive: 20.6 µM [inhibitor, single point]",–
O=S(=O)(c1ccc(N2CCC(c3ccc(Cl)cc3)=N2)cc1)N(CCO)CCO,"inconclusive: 25.9 µM [activator, single point]",–
O=[N+]([O-])c1cc(/C=N/N2CCCCC2)ccc1Cl,"inconclusive: 20.6 µM [activator, single point]",–
CC1CCN(c2ncnc3c2cnn3-c2ccccc2)CC1,"inconclusive: 1.64 µM [activator, full curve]",–
O=C(N/N=C/C=C/c1ccc(Br)cc1)C(O)c1ccccc1 (stereo unspecified),–,inactive: 14.4%
O=C(NCCCN1CCOCC1)c1ccc2c(=O)n(Cc3ccc(Cl)cc3)c(=S)[nH]c2c1,–,inactive: 3.22%
COc1cc(C(=O)OCC(=O)N2c3ccccc3NC(=O)C2(C)C)ccc1OCC(C)C,"inconclusive: 25.9 µM [inhibitor, partial curve]",–
O=C(c1ccco1)N1CCN(c2ncnc3c2[nH]c2ccc(Br)cc23)CC1,active: 23.1 µM,–
CCn1c(COc2ccc(Cl)cc2)nnc1SC1CCc2ccccc2C1=O (stereo unspecified),"inconclusive: 23.1 µM [inhibitor, partial curve]",–
CCn1c(=O)c(C(=O)CN(C)CC(=O)Nc2cccc(F)c2)c(N)n(Cc2ccccc2)c1=O,"inconclusive: 29.1 µM [inhibitor, single point]",–
Cc1ccc(C)c(NS(=O)(=O)c2cc(C(=O)Nc3ccccc3-c3ccccc3)ccc2Cl)c1,"inconclusive: 16.4 µM [inhibitor, single point]",–
Cc1ccc(N2C(=O)N(CC(=O)NCc3ccccc3Cl)C(=O)C2C)cc1 (stereo unspecified),–,inactive: -20.1%
Nc1nc(-c2ccc(-n3nncc3-c3ccco3)cc2)cs1,"inconclusive: 20.6 µM [inhibitor, single point]",–
CN(CC(=O)Nc1cccc(F)c1)C(=O)c1cc(S(=O)(=O)N2CCN(c3ccccc3)CC2)ccc1Cl,"inconclusive: 23.1 µM [inhibitor, single point]",–
C=C(C)COc1ccc(-c2ncnc(C(F)(F)F)c2-c2ccc(OC)cc2)c(O)c1,"inconclusive: 29.1 µM [inhibitor, single point]",–
CCC(C)c1ccccc1N1CC(C(=O)N(C)CC(=O)Nc2cccc(F)c2)CC1=O (stereo unspecified),–,inactive: 10.2%
Cc1cccc(OCC(=O)NC2CCCC2)c1,"inconclusive: 20.6 µM [activator, single point]",–
CC(C)CN(C(=O)CN1CCc2ccccc21)c1c(N)n(CC(C)C)c(=O)[nH]c1=O,–,inactive: -4.14%
CCCCCCCCOC(=O)c1c(CSC(=N)N)n(C)c2cc(Br)c(OC(C)=O)cc12,"inconclusive: 23.1 µM [activator, single point]",–
Cc1ccccc1OCC(=O)Nc1nc2ccccc2[nH]1,"inconclusive: 16.4 µM [activator, partial curve]",–
CC1CCN(c2ccc([N+](=O)[O-])c(SCCO)c2)CC1,"inconclusive: 20.6 µM [inhibitor, single point]",–
COc1ccc(/C=N/n2cnnc2)cc1Cn1nc(C)c([N+](=O)[O-])c1C,"inconclusive: 18.3 µM [inhibitor, single point]",–

SMILES,Potency,"activity change, negative = inhibition"
Nc1nc(Nc2ccc(Cl)cc2)nc(NCc2ccco2)c1[N+](=O)[O-],"inconclusive: 3.66 µM [activator, full curve, poor fit]",–
COc1cccc(C=Nc2ccccc2C(=O)Nc2ccccc2)c1O,"inconclusive: 23.1 µM [activator, partial curve]",–
Cc1ccc(-c2nnc(SCC(=O)N/N=C/c3ccccc3C(=O)O)n2-c2ccccc2)cc1,–,inactive: 10.6%
CN1CC(c2ccccc2Cl)C2(COc3ccccc3C2=O)C12C(=O)Nc1ccccc12 (stereo unspecified),"inconclusive: 29.1 µM [inhibitor, single point]",–
Cc1ccccc1-c1nnc(SCC(=O)N2CCCC2)o1,"inconclusive: 18.3 µM [activator, partial curve]",–
Fc1ccc(-c2n[nH]c(=S)n2-c2ccc3c(c2)OCCO3)cc1,–,inactive: 12.4%
CCCCCCn1c(N2CCN(c3ccccc3)CC2)nc2c1c(=O)[nH]c(=O)n2C,"inconclusive: 18.4 µM [inhibitor, single point]",–
CCCC(=O)NC(=S)Nc1sc2c(c1C(N)=O)CCC2,"inconclusive: 18.4 µM [activator, single point]",–
CSc1nc(-c2ccc(F)cc2)cc(=O)[nH]1,–,inactive: -6.65%
Cc1cccc(/N=C/c2c(O)[nH]c3ccccc23)n1,"inconclusive: 2.91 µM [activator, partial curve]",–
CCN(CC)c1ccc(NC(=O)c2ccc3c(c2)OCO3)cc1,"inconclusive: 2.31 µM [activator, partial curve]",–
CCN(CC)CCN(CC(=O)Nc1c(C)cc(C)cc1C)C(=O)c1ccccc1,–,inactive: 9.9%
COc1ccc(N=NC2=C(O)CC(C)(C)CC2=O)cc1,"inconclusive: 7.31 µM [activator, partial curve]",–
Cc1ccccc1NC(=O)Cn1nnc(-c2ccc(N3CCOCC3)cc2)n1,–,inactive: 21%
COc1cccc2cc(CC(=O)c3ccc(C)cc3C)c(=O)oc12,"inconclusive: 16.4 µM [activator, partial curve]",–
Cc1cccc(Nc2nc(NCCCN3CCOCC3)nc(N)c2[N+](=O)[O-])c1,"inconclusive: 29.1 µM [inhibitor, single point]",–
Cc1ccc(Nc2nc(N)nc(CN3CCN(C(=O)c4ccco4)CC3)n2)cc1Cl,"inconclusive: 35.5 µM [inhibitor, single point]",–
COc1ccc(/C=N/n2cnc3scc(-c4cccs4)c3c2=O)cc1OC,"inconclusive: 11.6 µM [inhibitor, partial curve]",–
O=C(CCN1CCN(c2ccccc2F)CC1)Nc1ccccc1Cl,"inconclusive: 29.1 µM [inhibitor, single point]",–
Cc1cc(C(F)(F)F)n2nc(-c3cccs3)cc2n1,"inconclusive: 13 µM [activator, partial curve]",–
COc1cc(/C=C/c2nc3ccccc3c(=O)[nH]2)cc(Cl)c1O,"inconclusive: 20.6 µM [activator, partial curve, poor fit]",–
CC1(C)Cc2c(C#N)c(SCC(=O)c3ccccc3)nc(N3CCOCC3)c2CO1,active: 1.3 µM,–

# Pulled one by one from the list above, two records:
SMILES,Potency,"activity change, negative = inhibition"
CN1CC(c2ccccc2Cl)C2(COc3ccccc3C2=O)C12C(=O)Nc1ccccc12 (stereo unspecified),"inconclusive: 29.1 µM [inhibitor, single point]",–
Cc1ccc(Nc2nc(N)nc(CN3CCN(C(=O)c4ccco4)CC3)n2)cc1Cl,"inconclusive: 35.5 µM [inhibitor, single point]",–
